Laboratory results taken from publication PMC4687643.

Assays:
[1] = target: T1, GST-Cdc42 interacting protein 4 (CIP4) SH3 domain (human) (UniProt Q15642); experiment: pull-down; GST-SH3 domains (~12 μg) on GSH-sepharose beads incubated with purified recombinant full-length human dynamin I splice variants (~3 μg), 30 min, 4°C; 30 mM or 150 mM NaCl; Coomassie Blue stained gel; both purified
T1 sequence: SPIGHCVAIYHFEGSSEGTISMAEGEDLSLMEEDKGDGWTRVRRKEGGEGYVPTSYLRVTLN

[2] = target: T2, GST-Formin Binding Protein 17 (FBP17) SH3 domain (human) (UniProt Q96RU3); experiment: as above
T2 sequence: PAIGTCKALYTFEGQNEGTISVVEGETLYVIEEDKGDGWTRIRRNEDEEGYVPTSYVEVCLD

[3] = target: T3, GST-amphiphysin I SH3 domain (human) (UniProt P49418); experiment: as above
T3 sequence: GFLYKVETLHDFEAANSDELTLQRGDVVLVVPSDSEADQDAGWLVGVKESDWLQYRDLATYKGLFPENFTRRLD

[4] = target: T4, GST-amphiphysin II SH3 domain (human) (UniProt O00499); experiment: as above
T4 sequence: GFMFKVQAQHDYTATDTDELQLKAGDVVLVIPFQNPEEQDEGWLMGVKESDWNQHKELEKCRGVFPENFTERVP

[5] = target: T1, GST-Cdc42 interacting protein 4 (CIP4) SH3 domain (human); experiment: pull-down; GST-SH3 domains (~12 μg) on GSH-sepharose beads incubated with purified sheep dynamin I (~3 μg), 10 min, 4°C; 10 mM Tris pH 7.4, 30 mM or 150 mM NaCl, 20 mM MgCl2, 0.05% Tween 80, 1 mM EDTA, 1 mM EGTA; Coomassie Blue stained gel; both purified
[6] = target: T2, GST-Formin Binding Protein 17 (FBP17) SH3 domain (human); experiment: as above
[7] = target: T3, GST-amphiphysin I SH3 domain (human); experiment: as above
[8] = target: T4, GST-amphiphysin II SH3 domain (human); experiment: as above
[9] = target: T1, GST-Cdc42 interacting protein 4 (CIP4) SH3 domain (human); experiment: pull-down; GST-SH3 domains (~3 μg) on GSH-sepharose beads incubated with rat brain synaptosome lysate (1% Triton X-100, 5 mM Tris pH 7.4, 30 mM NaCl); Coomassie Blue stained gel; only the target purified
[10] = target: T2, GST-Formin Binding Protein 17 (FBP17) SH3 domain (human); experiment: as above
[11] = target: T3, GST-amphiphysin I SH3 domain (human); experiment: as above
[12] = target: T4, GST-amphiphysin II SH3 domain (human); experiment: as above

| binding [1] | binding [2] | binding [3] | binding [4] | Substance | further results |
| --- | --- | --- | --- | --- | --- |
| binds | binds | binds | binds | recombinant human dynamin I middle domain splice variant Ibb (enzyme) | – |
| – | – | – | – | endogenous sheep brain dynamin I (enzyme) | binding [5]: binds; binding [6]: binds; binding [7]: binds; binding [8]: binds |
| – | – | – | – | dynamin in rat brain synaptosomes (enzyme) | binding [9]: binds; binding [10]: binds; binding [11]: binds; binding [12]: binds |
| binds | binds | binds | binds | recombinant human dynamin I middle domain splice variant Iab (enzyme) | – |

No constants are given. Whether binding was seen depends on the method and setting. A result given as binding can be weak or reduced; the word gives no strength. Tags and fused reporters may be left off the sequences shown. For some of these results: In cells and extracts the contact can be indirect.
